Data: paper PMC4743919
No constants are given. Whether binding was seen depends on the method and setting. In cells and extracts the contact can be indirect. Some binding calls cover weakened binding; strength is not graded here. Tags and fused reporters may be left off the sequences shown.

Chains of the proteins cited; added tags and fusions are not shown. Lines headed by an entry give the natural chain unless they say otherwise; changes in a name come on top.
UniProt P32558: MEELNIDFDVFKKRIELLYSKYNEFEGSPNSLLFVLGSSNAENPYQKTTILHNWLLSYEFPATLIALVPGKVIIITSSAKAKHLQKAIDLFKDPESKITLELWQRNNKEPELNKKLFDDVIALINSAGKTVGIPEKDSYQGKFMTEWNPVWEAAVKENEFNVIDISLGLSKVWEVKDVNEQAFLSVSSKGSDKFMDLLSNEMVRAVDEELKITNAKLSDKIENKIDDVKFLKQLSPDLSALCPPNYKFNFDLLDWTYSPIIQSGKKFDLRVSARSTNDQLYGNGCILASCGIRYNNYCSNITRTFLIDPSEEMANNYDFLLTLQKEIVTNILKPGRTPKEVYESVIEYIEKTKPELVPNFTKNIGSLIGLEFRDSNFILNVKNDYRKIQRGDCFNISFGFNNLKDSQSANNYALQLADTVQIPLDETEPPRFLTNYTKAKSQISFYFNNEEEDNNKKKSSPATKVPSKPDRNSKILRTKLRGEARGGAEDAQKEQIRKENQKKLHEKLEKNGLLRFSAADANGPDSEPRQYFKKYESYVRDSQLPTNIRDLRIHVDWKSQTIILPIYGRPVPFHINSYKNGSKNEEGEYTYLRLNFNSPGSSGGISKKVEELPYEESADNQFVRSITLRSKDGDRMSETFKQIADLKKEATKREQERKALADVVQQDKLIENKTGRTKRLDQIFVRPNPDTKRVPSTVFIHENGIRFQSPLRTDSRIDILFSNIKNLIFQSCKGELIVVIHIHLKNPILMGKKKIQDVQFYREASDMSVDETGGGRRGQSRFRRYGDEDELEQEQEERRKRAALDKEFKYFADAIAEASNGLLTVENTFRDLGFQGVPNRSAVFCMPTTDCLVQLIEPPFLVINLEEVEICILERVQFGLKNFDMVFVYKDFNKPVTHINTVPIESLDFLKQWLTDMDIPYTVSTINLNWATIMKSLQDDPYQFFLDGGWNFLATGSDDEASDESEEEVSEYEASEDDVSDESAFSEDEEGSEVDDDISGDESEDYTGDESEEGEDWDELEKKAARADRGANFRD

T1: PA-tagged Mms22 (S. cerevisiae) (UniProt Q06164)
T1 sequence: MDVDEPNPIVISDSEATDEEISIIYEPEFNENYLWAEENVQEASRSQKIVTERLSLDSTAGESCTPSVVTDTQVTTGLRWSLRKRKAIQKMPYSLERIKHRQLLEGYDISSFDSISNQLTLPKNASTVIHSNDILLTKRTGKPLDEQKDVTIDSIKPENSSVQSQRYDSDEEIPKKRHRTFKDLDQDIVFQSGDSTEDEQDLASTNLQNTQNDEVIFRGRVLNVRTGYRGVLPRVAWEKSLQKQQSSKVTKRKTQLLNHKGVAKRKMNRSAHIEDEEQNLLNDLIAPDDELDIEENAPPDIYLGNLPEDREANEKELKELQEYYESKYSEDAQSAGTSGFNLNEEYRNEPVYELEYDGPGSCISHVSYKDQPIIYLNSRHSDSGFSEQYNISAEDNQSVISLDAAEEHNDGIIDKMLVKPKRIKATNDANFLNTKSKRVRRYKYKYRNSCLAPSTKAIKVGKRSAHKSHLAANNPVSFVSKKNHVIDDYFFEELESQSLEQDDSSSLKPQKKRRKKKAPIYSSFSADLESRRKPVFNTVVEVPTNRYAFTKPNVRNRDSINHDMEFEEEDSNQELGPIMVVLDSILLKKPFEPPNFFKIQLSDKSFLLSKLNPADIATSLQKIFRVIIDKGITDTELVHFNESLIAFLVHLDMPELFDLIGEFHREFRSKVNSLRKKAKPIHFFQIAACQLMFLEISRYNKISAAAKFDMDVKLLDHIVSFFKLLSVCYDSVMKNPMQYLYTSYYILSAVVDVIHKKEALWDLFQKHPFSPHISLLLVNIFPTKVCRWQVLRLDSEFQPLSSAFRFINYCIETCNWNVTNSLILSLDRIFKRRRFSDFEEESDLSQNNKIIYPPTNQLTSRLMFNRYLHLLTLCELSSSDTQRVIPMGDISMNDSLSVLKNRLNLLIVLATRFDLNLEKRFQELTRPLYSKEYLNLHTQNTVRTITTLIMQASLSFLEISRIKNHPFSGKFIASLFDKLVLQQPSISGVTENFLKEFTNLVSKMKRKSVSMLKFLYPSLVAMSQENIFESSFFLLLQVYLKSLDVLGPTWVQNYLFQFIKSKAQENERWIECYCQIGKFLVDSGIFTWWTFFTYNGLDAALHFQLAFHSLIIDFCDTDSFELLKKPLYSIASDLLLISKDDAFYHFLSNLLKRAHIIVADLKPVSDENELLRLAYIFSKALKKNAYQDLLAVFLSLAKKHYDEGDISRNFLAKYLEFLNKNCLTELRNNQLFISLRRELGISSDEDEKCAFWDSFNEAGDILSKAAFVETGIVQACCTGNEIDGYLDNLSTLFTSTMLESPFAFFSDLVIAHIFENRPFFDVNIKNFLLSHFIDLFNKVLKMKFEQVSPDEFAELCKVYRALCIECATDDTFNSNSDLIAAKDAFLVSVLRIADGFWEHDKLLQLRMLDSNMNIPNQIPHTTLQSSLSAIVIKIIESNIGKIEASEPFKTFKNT


Columns and labels:
[1] = molecular target: T1, PA-tagged Mms22 (S. cerevisiae); assay: co-IP; PA-Mms22 captured on IgG-coupled Dynabeads from extracts of yeast cells in G1 or S-phase, with or without 0.03% MMS; Tris-acetate pH 9.0 acetate-salt buffer, Benzonase-digested extract, 2 h at 4°C; immunoblotting
[2] = molecular target: T1, PA-tagged Mms22 (S. cerevisiae); assay: co-IP; as a2, but PA-Mms22 purified from extracts of ctf4Δ cells in G1 or S-phase; immunoblotting

binding [1]	binding [2]	Molecule
binds	binds	FACT complex (Spt16, Pob3) (from UniProt P32558 1-1035; Q04636 1-552)
binds		Ctf4 (protein, UniProt Q01454 1-927) MVSVIDKLVFDFGGKTLVSLAPDNNTLCVANKNGLTKILKTNNPEEEPETLDSSKLVSSIKCYSNSHFLMTTMQGDALRYNIDSSQEELLARFALPLRDCCVIHSGKMAVFGGDDLELILLELDDETHKKHAIKIDEQVSQISYNSQMNILAVSMINGKVQIFSLTSTIPNKVHELNDYIVANSYDDTHRDKILSNMMDDIDKDNDNDLSETADPDENNVADPEFCAANRICTRVAWHPKGLHFALPCADDTVKIFSIKGYSLQKTLSTNLSSTKAHFIDLQFDPLRGTYIAAVDLNNKLTVWNWETSEIHYTREFKRKITNIAWKIQADSKTLDLVLGTWSGSIAIVQNLAESVVSNIPDQSVAESSTKHGLFVDSESDLENLEGNDDINKSDKLFSDITQEANAEDVFTQTHDGPSGLSEKRKYNFEDEEDFIDDDDGAGYISGKKPHNEHSYSRVHKTHSFPISLANTGKFRYMPFSPAGTPFGFTDRRYLTMNEVGYVSTVKNSEQYSITVSFFDVGRFREYHFEDLFGYDLCFLNEKGTLFGQSKTGQIQYRPHDSIHSNWTKIIPLQAGERITSVAATPVRVIVGTSLGYFRSFNQFGVPFAVEKTSPIVALTAQNYRVFSVHYSQFHGLSYSLSELGTSSKRYYKRECPLPMSLPNINSDMKKDANLDYYNFNPMGIKSLFFSSYGDPCIFGSDNTLLLLSKWRSPEESKWLPILDSNMEIWKMSGGKETTDIHVWPLALAYDTLNCILVKGKHIWPEFPLPLPSEMEIRMPVFVKSKLLEENKAILNKKNEIGADTEAEEGEEDKEIQIPVSMAAEEEYLRSKVLSELLTDTLENDGEMYGNENEVLAALNGAYDKALLRLFASACSDQNVEKALSLAHELKQDRALTAAVKISERAELPSLVKKINNIREARYEQQLK
no binding		Ctf4-ΔNT (amino acids 461–927) (domain or fragment, UniProt Q01454 461-927) THSFPISLANTGKFRYMPFSPAGTPFGFTDRRYLTMNEVGYVSTVKNSEQYSITVSFFDVGRFREYHFEDLFGYDLCFLNEKGTLFGQSKTGQIQYRPHDSIHSNWTKIIPLQAGERITSVAATPVRVIVGTSLGYFRSFNQFGVPFAVEKTSPIVALTAQNYRVFSVHYSQFHGLSYSLSELGTSSKRYYKRECPLPMSLPNINSDMKKDANLDYYNFNPMGIKSLFFSSYGDPCIFGSDNTLLLLSKWRSPEESKWLPILDSNMEIWKMSGGKETTDIHVWPLALAYDTLNCILVKGKHIWPEFPLPLPSEMEIRMPVFVKSKLLEENKAILNKKNEIGADTEAEEGEEDKEIQIPVSMAAEEEYLRSKVLSELLTDTLENDGEMYGNENEVLAALNGAYDKALLRLFASACSDQNVEKALSLAHELKQDRALTAAVKISERAELPSLVKKINNIREARYEQQLK
